Binding data for one substance are collected here from patent US20150086515A1.

The chains behind the UniProt entries cited, without tags or fusion partners. Where a name states a change or a piece, a line headed by the entry shows the natural chain unless it says otherwise.
UniProt P06756: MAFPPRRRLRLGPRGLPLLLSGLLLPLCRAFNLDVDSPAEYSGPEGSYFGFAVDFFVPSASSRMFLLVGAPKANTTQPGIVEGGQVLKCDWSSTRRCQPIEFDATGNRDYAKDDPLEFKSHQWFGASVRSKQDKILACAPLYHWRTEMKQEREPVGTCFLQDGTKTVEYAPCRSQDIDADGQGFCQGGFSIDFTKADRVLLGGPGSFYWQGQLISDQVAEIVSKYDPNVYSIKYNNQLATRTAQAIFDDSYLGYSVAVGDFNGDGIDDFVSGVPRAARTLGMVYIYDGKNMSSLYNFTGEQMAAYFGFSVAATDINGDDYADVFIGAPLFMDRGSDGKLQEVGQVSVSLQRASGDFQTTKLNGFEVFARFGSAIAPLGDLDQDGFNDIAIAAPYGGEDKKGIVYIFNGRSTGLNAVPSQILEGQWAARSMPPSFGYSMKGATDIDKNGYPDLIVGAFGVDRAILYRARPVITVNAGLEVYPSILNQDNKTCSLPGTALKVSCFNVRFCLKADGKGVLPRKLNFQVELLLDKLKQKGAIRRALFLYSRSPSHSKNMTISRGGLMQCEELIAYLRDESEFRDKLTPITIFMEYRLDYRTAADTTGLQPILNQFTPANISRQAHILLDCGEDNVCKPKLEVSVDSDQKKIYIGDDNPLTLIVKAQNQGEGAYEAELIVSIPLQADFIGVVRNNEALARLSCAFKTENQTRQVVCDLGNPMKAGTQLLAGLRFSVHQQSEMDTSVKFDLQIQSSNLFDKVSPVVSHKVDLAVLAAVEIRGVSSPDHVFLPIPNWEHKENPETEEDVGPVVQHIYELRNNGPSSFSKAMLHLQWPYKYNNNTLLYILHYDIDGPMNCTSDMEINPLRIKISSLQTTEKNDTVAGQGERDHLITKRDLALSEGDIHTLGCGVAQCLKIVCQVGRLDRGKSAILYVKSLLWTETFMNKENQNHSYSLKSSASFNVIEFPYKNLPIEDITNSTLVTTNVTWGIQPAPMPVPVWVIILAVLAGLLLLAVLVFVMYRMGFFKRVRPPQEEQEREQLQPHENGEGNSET
UniProt P05106: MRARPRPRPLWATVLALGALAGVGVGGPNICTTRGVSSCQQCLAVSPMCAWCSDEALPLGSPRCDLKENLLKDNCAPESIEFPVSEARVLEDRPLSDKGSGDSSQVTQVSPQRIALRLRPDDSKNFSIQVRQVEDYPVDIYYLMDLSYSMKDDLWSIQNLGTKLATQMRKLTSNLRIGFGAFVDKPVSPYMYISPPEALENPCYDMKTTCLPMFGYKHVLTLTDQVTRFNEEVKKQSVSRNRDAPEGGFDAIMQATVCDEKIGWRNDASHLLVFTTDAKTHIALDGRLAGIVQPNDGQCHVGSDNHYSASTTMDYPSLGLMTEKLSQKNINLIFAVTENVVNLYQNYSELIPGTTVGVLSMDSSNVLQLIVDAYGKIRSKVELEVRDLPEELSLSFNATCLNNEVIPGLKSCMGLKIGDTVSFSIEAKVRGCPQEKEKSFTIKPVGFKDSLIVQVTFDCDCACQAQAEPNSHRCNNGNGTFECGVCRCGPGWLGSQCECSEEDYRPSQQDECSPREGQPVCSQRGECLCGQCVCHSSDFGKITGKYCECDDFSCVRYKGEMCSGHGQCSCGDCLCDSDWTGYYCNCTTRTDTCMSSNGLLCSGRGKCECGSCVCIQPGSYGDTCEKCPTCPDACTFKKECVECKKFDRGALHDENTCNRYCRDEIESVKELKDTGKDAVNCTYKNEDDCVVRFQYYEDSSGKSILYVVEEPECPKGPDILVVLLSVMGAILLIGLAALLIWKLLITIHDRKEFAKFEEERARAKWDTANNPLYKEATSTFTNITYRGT
UniProt P01375: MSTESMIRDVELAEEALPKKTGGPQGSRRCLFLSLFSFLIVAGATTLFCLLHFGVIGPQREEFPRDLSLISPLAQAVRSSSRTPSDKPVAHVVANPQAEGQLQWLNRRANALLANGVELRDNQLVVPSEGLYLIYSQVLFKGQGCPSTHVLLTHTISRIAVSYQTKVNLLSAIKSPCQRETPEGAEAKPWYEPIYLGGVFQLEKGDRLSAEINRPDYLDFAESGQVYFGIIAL

Results are given in words; binding and its absence hold for the method and conditions named. Some binding calls cover weakened binding; strength is not graded here.

This test addresses integrin αvβ3 on U87MG human glioblastoma cells (human) (UniProt P06756+P05106). Description: cell adhesion assay: TNF-RGD4C captured on an anti-TNF antibody-coated plate, adherent U87MG cells stained with crystal violet, A600 read.

For “secreted wild-type TNF-RGD4C fusion protein (from UniProt P01375 77-233) (ligand)”, the binding result is listed as “binds”.
